Data reported in PMC3017119, “Structural Basis for the Recognition of Cellular mRNA Export Factor REF by Herpes Viral Proteins HSV-1 ICP27 and HVS ORF57” (PLoS Pathogens, 2011).
Results are given in words; binding and its absence hold for the method and conditions named.

Sequences of proteins named here, by UniProt entry; tags and fusion partners are left off. Residues count along the entry.
UniProt Q16629, residues 11-84: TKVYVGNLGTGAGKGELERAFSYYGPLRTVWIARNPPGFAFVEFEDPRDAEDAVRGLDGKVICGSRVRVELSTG

Tests used:
[1] = molecular target: REF^54–155 (recombinant, for NMR) (murine) (UniProt Q9JJW6); experiment: NMR titration; […]; 30°C; […], pH 6.2; both purified
9G8 = 9G8 (UniProt Q16629); experiment: NMR titration; both purified

Binder	binding [1]	binding (9G8)
NRYGKKIKFGT [KSHV ORF57^100–110]	no binding (tested: >100000 µM)	–
SVWSRLGARR [ICP27^103–112]	–	no binding
